From US12019083B2, “Compound distribution in microfluidic devices” (EMULATE, Inc., priority 2019, dated 2024)

Assay: Time-dependent material absorption test in vials, PDMS
Format: physicochemical
Settings: recovered concentration compared to dosing concentration

For CN1C(=O)CN=C(c2ccccc2)c2cc(Cl)ccc21 [Diazepam], the “absorption into PDMS” value was “absorb into PDMS”.
